15 compounds from PubChem BioAssay AID2685 (National Center for Advancing Translational Sciences (NCATS), 2010) can be followed below.

The experiment in a line: qHTS Assay for Lipid Storage Modulators in Drosophila S3 Cells.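 For cell number change: cells counted by Cell Tracker Red CMTPX staining in the red channel.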 Particulars: BODIPY lipid droplet fluorescence, 18-24 h; for cell number change: measured here: cell count max response, cells fed with added oleic acid. Summed up: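 Drosophila S3 cells loaded with oleic acid (400 uM, as added) and compounds at several concentrations; lipid droplets imaged by 488-nm laser-scanning cytometry, 500–530 nm intensity and object ratio to cell channel. Percent activity normalized to 20 uM Triacsin C.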
(In general: Quantitative high-throughput screening tests each substance at several concentrations.)

The mark [1] stands for this setting: measured here: lipid fluorescence (Fed channel) AC50, cells fed with added oleic acid.
Setting [2] is: measured here: cell number channel AC50, cells fed with added oleic acid.

The list shows a part of the results. Further columns of the screen follow, without active or inactive calls. Most of these compounds were active or inconclusive in the main read-out, so they are no random draw. Words in brackets tell the shape of the fitted curve; partial curves, single points and poor fits give uncertain potencies.

As usually defined, the AC50 is the concentration giving half of the maximal activity seen. Low readings indicate activity at low concentration, high ones activity only at high concentration. Consider `O=C(Nc1ccccc1)c1ccc2ccccc2n1`, for which the cell number change was found to be 20%. Besides, the AC50 under setting [1] is 0.13 µM [falling, full curve, poor fit].

Take `COc1ccc(-n2c(N)c(C(=O)NCc3ccco3)c3nc4ccccc4nc32)cc1`: the cell number change was -22.5%. The AC50 under setting [1] is 5.8 µM [rising, partial curve].

Turning to `O=C(CCc1ccccc1)NC(=S)Nc1ccc2c(c1)C(=O)OC2`, the cell number change is -41.4%. Further, the AC50 under setting [2] is 4.61 µM [falling, single point]. Moreover, the AC50 under setting [1] is 6.51 µM [falling, single point].

`O=C(c1ccc([N+](=O)[O-])cc1)N1CCN(C(=O)c2cccs2)CC1`: the cell number change worked out at 13.9%. Also, the AC50 under setting [2] is 3.66 µM [falling, single point].

`CN(C(=O)CSc1nc2c(c(=O)[nH]1)CCC2)c1ccccc1`: the cell number change came to 8.64%. Further, the AC50 under setting [2] was 0.58 µM [falling, single point]. Further, the AC50 under setting [1] was 0.461 µM [falling, single point].

Consider `CCOc1ccc(N(CC)C(=O)COc2cc(=O)n(CC)c3ccccc23)cc1`, for which the AC50 under setting [2] was 1.46 µM [rising, partial curve].

In the case of `CN(C)c1ccc(N=Cc2nc(-c3ccccc3)oc2O)cc1`, the cell number change is 10.6%.

Turning to `Nc1nc(F)nc2c1ncn2[C@@H]1O[C@H](CO)[C@@H](O)[C@@H]1O`, the AC50 under setting [1] is 1.46 µM [falling, full curve, poor fit].

`CCC(C(=O)OCC(=O)Nc1ccccc1-c1ccccc1)c1ccccc1` (stereo unspecified): the cell number change turned out to be 10.6%. In addition, the AC50 under setting [1] is 5.8 µM [rising, single point].

Consider `Cc1ccc2c(c1)COc1c3ccc(C(=O)O)cc3nn1-2`, for which the cell number change was determined as 5.99%. Under setting [1], the AC50 is 29.1 µM [rising, single point].

As for `CCOCc1c(C(=O)NC2=Nc3ccccc3NC(CC)=C2C(=O)OCC)oc2ccccc12`, the cell number change was determined as 28.6%. The AC50 under setting [2] is 1.84 µM [rising, partial curve, poor fit].

Consider `O=C(Nc1ccc(N2CCOCC2)c(F)c1)c1cccs1`, for which the cell number change is -42.4%. Further, the AC50 under setting [2] is 14.1 µM [falling, partial curve, poor fit]. In addition, the AC50 under setting [1] was 6.31 µM [falling, single point].

As for `CCc1ccc(OCC(=O)NNC(=O)CNC(=O)c2ccc(Br)o2)cc1`, the cell number change was 0.648%. Under setting [1], the AC50 was 10.3 µM [rising, partial curve].

As to `CC(C)(C)OC(=O)NCc1ccc(CNC(=O)c2[nH]cnc2C(=O)NCC(=O)OCc2ccccc2)cc1`, the cell number change was -10.5%. Under setting [1], the AC50 is 6.51 µM [rising, single point].

For the compound `O=C(COC(=O)CN1C(=O)C2CC=CCC2C1=O)Nc1cc(C(F)(F)F)ccc1N1CCOCC1` (stereo unspecified), the cell number change worked out at 38.6%. In addition, the AC50 under setting [2] was 32.6 µM [rising, single point]. The AC50 under setting [1] was 6.51 µM [falling, single point].
